Laboratory results: PubChem BioAssay AID1224830 (NIAID, 2016)
The whole screen tested about 18,000 reagents; this is a part drawn at random. Over the whole deposit, about 2,900 (16%) were called active. 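Calls are made per well; low scores hint the gene aids the LPS response, high scores that it dampens it.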 Unmarked entries are inactive. Repeated entries: four replicate wells of each siRNA pool. No sequences are given here.

- Test: 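Regulators of TLR4 signalling towards TNF-alpha in macrophage-like cells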 (primary screen)
- Cell system: human THP-1 monocytic leukaemia cells, TNF dual-luciferase reporter clone, PMA-differentiated to macrophage-like cells
- Knock-down reagent: siRNA pool against human genes, 50 nM
- Time to read-out: LPS for 4 h, given about 3 days after siRNA transfection
- Challenge: bacterial LPS (TLR4 ligand), 10 ng/ml
- Detection: 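Ratio of firefly to renilla light, scaled to the plate median and expressed as a robust z-score per replicate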
- Direction: TNF reporter robust z-score: higher = stronger TNF reporter response to LPS
- Rule for the call: 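a well is active when its z-score exceeds 2.8 or falls below -1.5; control wells carry no call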

MPRIP: TNF reporter robust z-score = 1.74
MPRIP: TNF reporter robust z-score = 0.45
MPRIP: TNF reporter robust z-score = -0.47
MPRIP: TNF reporter robust z-score = -0.15
CSE1L: TNF reporter robust z-score = 2.41
CSE1L: TNF reporter robust z-score = 2.31
CSE1L: TNF reporter robust z-score = 1.79
CSE1L: TNF reporter robust z-score = 2.46
EXOSC4: TNF reporter robust z-score = -1.02
EXOSC4: TNF reporter robust z-score = -0.95
EXOSC4: TNF reporter robust z-score = -0.81
EXOSC4: TNF reporter robust z-score = -0.26
ZNF217: TNF reporter robust z-score = 0.48
ZNF217: TNF reporter robust z-score = 1.28
ZNF217: TNF reporter robust z-score = 0.88
ZNF217: TNF reporter robust z-score = 1.11
OR13H1: TNF reporter robust z-score = 0.09
OR13H1: TNF reporter robust z-score = 0.92
OR13H1: TNF reporter robust z-score = -0.29
OR13H1: TNF reporter robust z-score = -0.88
ZNF564: TNF reporter robust z-score = 0.22
ZNF564: TNF reporter robust z-score = 1.25
ZNF564: TNF reporter robust z-score = 0.1
ZNF564: TNF reporter robust z-score = 1.32
VDR: TNF reporter robust z-score = 0.27
VDR: TNF reporter robust z-score = 0.39
VDR: TNF reporter robust z-score = -0.16
VDR: TNF reporter robust z-score = 0.98
ACRV1: TNF reporter robust z-score = -1.73 (active)
ACRV1: TNF reporter robust z-score = -1.18
ACRV1: TNF reporter robust z-score = -1.72 (active)
ACRV1: TNF reporter robust z-score = -0.61
SGIP1: TNF reporter robust z-score = 0.6
SGIP1: TNF reporter robust z-score = 0.38
SGIP1: TNF reporter robust z-score = 0.02
SGIP1: TNF reporter robust z-score = -0.02
PLD4: TNF reporter robust z-score = -1.07
PLD4: TNF reporter robust z-score = -0.94
PLD4: TNF reporter robust z-score = -0.83
PLD4: TNF reporter robust z-score = -0.85
ID2: TNF reporter robust z-score = -1.24
ID2: TNF reporter robust z-score = -0.74
ID2: TNF reporter robust z-score = -0.63
ID2: TNF reporter robust z-score = -0.53
FAM47A: TNF reporter robust z-score = -0.28
FAM47A: TNF reporter robust z-score = -0.56
FAM47A: TNF reporter robust z-score = 1.58
FAM47A: TNF reporter robust z-score = 0.14

Reformatted: 3 of the entries above.
gene,TNF reporter robust z-score
ID2,-0.63
ID2,-0.53
FAM47A,-0.28
